# Assay results: patent US20040092519A1, “New treatment for hot flashes” (priority 2002, published 2004)
# At least one compound was matched to its structure with a doubt left.
# Key:
# [1] = system: muscarinic cholinergic receptors; experiment: interaction with muscarinic cholinergic receptors; assay type: binding
# I-adrenerigic receptors = experiment: interaction with I-adrenerigic receptors; assay type: binding
# 8-OH-DPAT hypothermia = settings: in vivo; cited from earlier work
smiles,measurement,setting,value
"CCOc1ccccc1OC(c1ccccc1)C1CNCCO1 (stereo not drawn) [reboxetine, 2-[α-(2-ethoxy)phenoxybenzyl]morpholine]",interaction with muscarinic cholinergic receptors,[1],without showing any appreciable interaction
same,interaction with I-adrenerigic receptors,I-adrenerigic receptors,without showing any appreciable interaction
same,effect in the 8-OH-DPAT hypothermia test,8-OH-DPAT hypothermia,ineffective
